# Source: PubChem BioAssay AID330 (DTP/NCI, 2004)
# The list shows only some results of the screen, not a fair sample: it gathers tests that were run many times, whatever their T/C, doses with no T/C, and many T/C values between a quarter and a half above the control. Other doses and runs of a compound stand elsewhere. T/C: endpoint of the treated group in % of that of the vehicle group. Some entries give survivors of the animals treated and no T/C: the source files T/C as zero there, which appears to mark a toxic dose or a test without result, not a measured value. Some doses without a T/C left all or most animals alive at the check, yet need not have been tolerated: the source hardly ever lists a survival T/C far under the control, and the zero likely stands for such cases as well. Survivors were counted at the toxicity check, usually on the fifth day, unless a day is given; later deaths do not show. Schedule codes are those of the source, taken here to give the interval after Q, in days (D) or hours (H), and the number of doses after X. Some doses were run more than once; their values stand side by side, smallest first. Where survival is the endpoint, the PubChem record calls one and a half times the control and up active, and a quarter to a half above the control has no call in these data; cut-offs in other NCI protocols can differ.
# Tested on: P388 leukemia ip, CD2F1 mice, survival T/C
# Assay: NCI In Vivo Anticancer Drug Screen. Data for tumor model P388 Leukemia (intraperitoneal) in CD2F1 (CDF1) mice
# Details: T/C endpoint: median survival time, higher T/C = longer survival
# [1] = dose: 50.0 mg/kg/injection, schedule: Q01DX009 (ip), vehicle: saline with Tween-80
# [2] = dose: 200.0 mg/kg/injection, schedule: Q01DX009 (ip), vehicle: saline with Tween-80
# [3] = dose: 240.0 mg/kg/injection, schedule: Q01DX005 (ip), vehicle: saline with Tween-80
# [4] = dose: 30.0 mg/kg/injection, schedule: Q01DX005 (ip), vehicle: saline
# [5] = dose: 60.0 mg/kg/injection, schedule: Q01DX005 (ip), vehicle: saline
# [6] = dose: 120.0 mg/kg/injection, schedule: Q01DX005 (ip), vehicle: saline
# [7] = dose: 240.0 mg/kg/injection, schedule: Q01DX005 (ip), vehicle: saline
# [8] = dose: 200.0 mg/kg/injection, schedule: Q01DX005 (ip), vehicle: saline with Tween-80
# [9] = dose: 60.0 mg/kg/injection, schedule: Q01DX005 (ip), vehicle: Klucel (hydroxypropylcellulose) (HPC)
# [10] = dose: 120.0 mg/kg/injection, schedule: Q01DX005 (ip), vehicle: Klucel (hydroxypropylcellulose) (HPC)
# [11] = dose: 400.0 mg/kg/injection, schedule: Q01DX001 (ip), vehicle: saline with Tween-80
# [12] = dose: 100.0 mg/kg/injection, schedule: Q01DX005 (ip), vehicle: saline with Tween-80
# [13] = dose: 25.0 mg/kg/injection, schedule: Q01DX005 (ip), vehicle: saline with Tween-80
# [14] = dose: 50.0 mg/kg/injection, schedule: Q01DX005 (ip), vehicle: saline with Tween-80
smiles,measurement,setting,value
O=c1c2ccccc2nc(-c2ccccc2Cl)n1-c1nnc(C(F)(F)F)s1,survivor count,[1],0 of 6
same,survivor count,"dose: 100.0 mg/kg/injection, schedule: Q01DX009 (ip), vehicle: saline with Tween-80",0 of 6
same,survivor count,[2],0 of 6
NC(=O)c1sc(SCc2ccccc2)c(-[n+]2ccccc2)c1N,survivor count,"dose: 100.0 mg/kg/injection, schedule: Q04DX002 (ip), vehicle: saline with Tween-80",5 of 6
CCOc1c(N=Nc2ccccc2OC)c(C)nn1C(N)=S,survivor count,"dose: 30.0 mg/kg/injection, schedule: Q01DX005 (ip), vehicle: Klucel + Tween-80",0 of 6
same,survivor count,"dose: 60.0 mg/kg/injection, schedule: Q01DX005 (ip), vehicle: Klucel + Tween-80",0 of 6
same,survivor count,"dose: 120.0 mg/kg/injection, schedule: Q01DX005 (ip), vehicle: Klucel + Tween-80",0 of 6
same,survivor count,"dose: 240.0 mg/kg/injection, schedule: Q01DX005 (ip), vehicle: Klucel + Tween-80",0 of 6
CCC(=O)C[N+]12CCN(CC1)CC2,survivor count,"dose: 100.0 mg/kg/injection, schedule: Q04DX002 (ip), vehicle: Klucel (hydroxypropylcellulose) (HPC)",0 of 6
same,survivor count,"dose: 200.0 mg/kg/injection, schedule: Q04DX002 (ip), vehicle: Klucel (hydroxypropylcellulose) (HPC)",0 of 6
same,survivor count,"dose: 400.0 mg/kg/injection, schedule: Q04DX002 (ip), vehicle: Klucel (hydroxypropylcellulose) (HPC)",0 of 6
O=[n+]1c2c(n([O-])c3cc(Cl)c(Cl)cc31)CCC2,survivor count,[3],6 of 6
c1ccc(-c2ccc[n+](CCCC[n+]3cccc(-c4ccccn4)c3)c2)nc1,survivor count,[4],1 of 6
same,survivor count,[5],0 of 6
same,survivor count,[6],0 of 6
same,survivor count,[7],0 of 6
CCc1cc2c(cc1C(C)=O)C(C)(C)CCC2(C)C,survivor count,[2],5 of 6
CCOC(=O)NNc1nc(-c2ccccc2)nc2nonc12,survivor count,[1],6 of 6
O=c1[nH]c2c(Cl)c(Cl)c(Cl)c(Cl)c2[nH]c1=O,survivor count,[8],6 of 6
O=C(O)c1cc2c3ccccc3sc2c2ccccc12,survivor count,[9],6 of 6
same,survivor count,[10],6 of 6
O=S(=O)(O)c1ccccc1O,survivor count,"dose: 100.0 mg/kg/injection, schedule: Q01DX001 (ip), vehicle: saline with Tween-80",1 of 6
same,survivor count,"dose: 200.0 mg/kg/injection, schedule: Q01DX001 (ip), vehicle: saline with Tween-80",0 of 6
same,survivor count,[11],0 of 6
Cc1ccc2c(ccc(/C=C\c3cc(C)c4cccnc4c3O)[n+]2C)c1,T/C,"dose: 1.56 mg/kg/injection, schedule: Q01DX009 (ip), vehicle: saline with Tween-80",130 % of control
same,T/C,"dose: 3.13 mg/kg/injection, schedule: Q01DX009 (ip), vehicle: saline with Tween-80",134 % of control
same,survivor count,"dose: 6.25 mg/kg/injection, schedule: Q01DX009 (ip), vehicle: saline with Tween-80",3 of 6 and 5 of 6
same,survivor count,"dose: 12.5 mg/kg/injection, schedule: Q01DX009 (ip), vehicle: saline with Tween-80",6 of 6
same,survivor count,"dose: 25.0 mg/kg/injection, schedule: Q01DX009 (ip), vehicle: saline with Tween-80",0 of 6
same,survivor count,[1],0 of 6
S=P(N1CCCCCC1)(N1CC1)N1CC1,T/C,"dose: 12.5 mg/kg/injection, schedule: Q01DX009 (ip), vehicle: saline",127 % of control
same,T/C,"dose: 25.0 mg/kg/injection, schedule: Q04DX003 (ip), vehicle: saline with Tween-80",127 % of control
same,survivor count,"dose: 75.0 mg/kg/injection, schedule: Q04DX003 (ip), vehicle: saline sonified",6 of 6
same,survivor count,"dose: 100.0 mg/kg/injection, schedule: Q04DX003 (ip), vehicle: saline with Tween-80",3 of 6
same,survivor count,"dose: 200.0 mg/kg/injection, schedule: Q04DX003 (ip), vehicle: saline with Tween-80",5 of 6
same,survivor count,"dose: 400.0 mg/kg/injection, schedule: Q04DX003 (ip), vehicle: saline with Tween-80",0 of 6
[Zn].c1c[nH]cn1.c1c[nH]cn1.c1c[nH]cn1.c1c[nH]cn1,T/C,[12],131 % of control
same,survivor count,[12],0 of 6 and 5 of 5
same,survivor count,[8],0 of 6
O=C1[O][Sn]2([Cl])[NH]C1C[S]2 (configuration not stated),survivor count,"dose: 200.0 mg/kg/injection, schedule: Q01DX005 (ip), vehicle: Klucel (hydroxypropylcellulose) (HPC)",0 of 6
CCOc1ccc2c(c1)/C(=C\C=C\C1CC(C)C3CC(OCC)CCC3N1CC)CC(C)N2CC (configuration not stated),T/C,"dose: 2.5 mg/kg/injection, schedule: Q01DX009 (ip), vehicle: saline + alcohol",127 % of control
same,T/C,"dose: 5.0 mg/kg/injection, schedule: Q01DX009 (ip), vehicle: saline + alcohol",137 % of control
O=C1C=CC(O)C2OC12 (configuration not stated),survivor count,"dose: 20.0 mg/kg/injection, schedule: Q04DX002 (ip), vehicle: saline",0 of 6
same,survivor count,"dose: 100.0 mg/kg/injection, schedule: Q04DX002 (ip), vehicle: saline",0 of 6
same,survivor count,"dose: 200.0 mg/kg/injection, schedule: Q04DX002 (ip), vehicle: saline",0 of 6
same,survivor count,"dose: 400.0 mg/kg/injection, schedule: Q04DX002 (ip), vehicle: saline",0 of 6
CS/C(=C/c1ccc2ccccc2[n+]1C)N1CCSCC1,survivor count,"dose: 6.25 mg/kg/injection, schedule: Q01DX005 (ip), vehicle: saline with Tween-80",2 of 5
same,survivor count,"dose: 12.5 mg/kg/injection, schedule: Q01DX005 (ip), vehicle: saline with Tween-80",0 of 6
same,survivor count,[13],0 of 6
same,survivor count,[14],0 of 6
same,survivor count,[12],0 of 6
same,survivor count,[8],0 of 6
CCOc1c(Cc2ccccc2)c(=O)n2c3ccccc3n(CC)c2c1C#N,survivor count,"dose: 60.0 mg/kg/injection, schedule: Q01DX005 (ip), vehicle: saline with Tween-80",6 of 6
same,survivor count,"dose: 120.0 mg/kg/injection, schedule: Q01DX005 (ip), vehicle: saline with Tween-80",6 of 6
same,survivor count,[3],6 of 6
COc1ccc2c(c1OC)OCC(CN(C)C)C2=O (configuration not stated),T/C,[6],145 % of control
same,survivor count,[7],1 of 6
NC(CCS)C(=O)O (configuration not stated),survivor count,[8],6 of 6
Cc1nc(N)nc2ccccc12,survivor count,[9],3 of 6
same,survivor count,[10],1 of 6
same,survivor count,"dose: 240.0 mg/kg/injection, schedule: Q01DX005 (ip), vehicle: Klucel (hydroxypropylcellulose) (HPC)",0 of 6
C1COCCOCCNCCOCCOCCN1,survivor count,"dose: 200.0 mg/kg/injection, schedule: Q01DX005 (ip), vehicle: saline",0 of 5
COC1=CC(=O)c2nc(Cl)ccc2C1=O,survivor count,[13],6 of 6
same,survivor count,[14],0 of 6
same,survivor count,[12],0 of 6
same,survivor count,[8],0 of 6
COc1ccccc1C(=O)C(CN(C)C)CN(C)C,survivor count,"dose: 15.0 mg/kg/injection, schedule: Q01DX005 (ip), vehicle: saline",5 of 6
same,survivor count,[4],0 of 6
same,survivor count,[5],0 of 6
same,survivor count,[6],0 of 6
same,survivor count,[7],0 of 6
CCOC(=O)/C=C(\C)Nc1ccccc1N,survivor count,[11],0 of 6
CC1=CC(=O)C(O)C2(C)C1CC1OC(=O)C(OC(=O)/C=C(\C)C(C)C)C3C(C)C(O)C4(O)OCC13C42 (configuration not stated),T/C,"dose: 1.0 mg/kg/injection, schedule: Q01DX005 (ip), vehicle: saline + alcohol",138 % of control
same,survivor count,"dose: 2.0 mg/kg/injection, schedule: Q01DX005 (ip), vehicle: saline + alcohol",1 of 6 and 3 of 6
same,survivor count,"dose: 4.0 mg/kg/injection, schedule: Q01DX005 (ip), vehicle: saline + alcohol",0 of 6
same,survivor count,"dose: 8.0 mg/kg/injection, schedule: Q01DX005 (ip), vehicle: saline + alcohol",0 of 6
Cc1ccc(C)c(CN(CCO)CCO)c1,survivor count,[7],1 of 6
